Source: the supplement of paper PMC10849652
The list shows a part of the results.

By UniProt entry, the sequences of proteins in these tests, tags left out. Where a name states a change or a piece, a line headed by the entry shows the natural chain unless it says otherwise.
UniProt P11717, whole entry, looked up: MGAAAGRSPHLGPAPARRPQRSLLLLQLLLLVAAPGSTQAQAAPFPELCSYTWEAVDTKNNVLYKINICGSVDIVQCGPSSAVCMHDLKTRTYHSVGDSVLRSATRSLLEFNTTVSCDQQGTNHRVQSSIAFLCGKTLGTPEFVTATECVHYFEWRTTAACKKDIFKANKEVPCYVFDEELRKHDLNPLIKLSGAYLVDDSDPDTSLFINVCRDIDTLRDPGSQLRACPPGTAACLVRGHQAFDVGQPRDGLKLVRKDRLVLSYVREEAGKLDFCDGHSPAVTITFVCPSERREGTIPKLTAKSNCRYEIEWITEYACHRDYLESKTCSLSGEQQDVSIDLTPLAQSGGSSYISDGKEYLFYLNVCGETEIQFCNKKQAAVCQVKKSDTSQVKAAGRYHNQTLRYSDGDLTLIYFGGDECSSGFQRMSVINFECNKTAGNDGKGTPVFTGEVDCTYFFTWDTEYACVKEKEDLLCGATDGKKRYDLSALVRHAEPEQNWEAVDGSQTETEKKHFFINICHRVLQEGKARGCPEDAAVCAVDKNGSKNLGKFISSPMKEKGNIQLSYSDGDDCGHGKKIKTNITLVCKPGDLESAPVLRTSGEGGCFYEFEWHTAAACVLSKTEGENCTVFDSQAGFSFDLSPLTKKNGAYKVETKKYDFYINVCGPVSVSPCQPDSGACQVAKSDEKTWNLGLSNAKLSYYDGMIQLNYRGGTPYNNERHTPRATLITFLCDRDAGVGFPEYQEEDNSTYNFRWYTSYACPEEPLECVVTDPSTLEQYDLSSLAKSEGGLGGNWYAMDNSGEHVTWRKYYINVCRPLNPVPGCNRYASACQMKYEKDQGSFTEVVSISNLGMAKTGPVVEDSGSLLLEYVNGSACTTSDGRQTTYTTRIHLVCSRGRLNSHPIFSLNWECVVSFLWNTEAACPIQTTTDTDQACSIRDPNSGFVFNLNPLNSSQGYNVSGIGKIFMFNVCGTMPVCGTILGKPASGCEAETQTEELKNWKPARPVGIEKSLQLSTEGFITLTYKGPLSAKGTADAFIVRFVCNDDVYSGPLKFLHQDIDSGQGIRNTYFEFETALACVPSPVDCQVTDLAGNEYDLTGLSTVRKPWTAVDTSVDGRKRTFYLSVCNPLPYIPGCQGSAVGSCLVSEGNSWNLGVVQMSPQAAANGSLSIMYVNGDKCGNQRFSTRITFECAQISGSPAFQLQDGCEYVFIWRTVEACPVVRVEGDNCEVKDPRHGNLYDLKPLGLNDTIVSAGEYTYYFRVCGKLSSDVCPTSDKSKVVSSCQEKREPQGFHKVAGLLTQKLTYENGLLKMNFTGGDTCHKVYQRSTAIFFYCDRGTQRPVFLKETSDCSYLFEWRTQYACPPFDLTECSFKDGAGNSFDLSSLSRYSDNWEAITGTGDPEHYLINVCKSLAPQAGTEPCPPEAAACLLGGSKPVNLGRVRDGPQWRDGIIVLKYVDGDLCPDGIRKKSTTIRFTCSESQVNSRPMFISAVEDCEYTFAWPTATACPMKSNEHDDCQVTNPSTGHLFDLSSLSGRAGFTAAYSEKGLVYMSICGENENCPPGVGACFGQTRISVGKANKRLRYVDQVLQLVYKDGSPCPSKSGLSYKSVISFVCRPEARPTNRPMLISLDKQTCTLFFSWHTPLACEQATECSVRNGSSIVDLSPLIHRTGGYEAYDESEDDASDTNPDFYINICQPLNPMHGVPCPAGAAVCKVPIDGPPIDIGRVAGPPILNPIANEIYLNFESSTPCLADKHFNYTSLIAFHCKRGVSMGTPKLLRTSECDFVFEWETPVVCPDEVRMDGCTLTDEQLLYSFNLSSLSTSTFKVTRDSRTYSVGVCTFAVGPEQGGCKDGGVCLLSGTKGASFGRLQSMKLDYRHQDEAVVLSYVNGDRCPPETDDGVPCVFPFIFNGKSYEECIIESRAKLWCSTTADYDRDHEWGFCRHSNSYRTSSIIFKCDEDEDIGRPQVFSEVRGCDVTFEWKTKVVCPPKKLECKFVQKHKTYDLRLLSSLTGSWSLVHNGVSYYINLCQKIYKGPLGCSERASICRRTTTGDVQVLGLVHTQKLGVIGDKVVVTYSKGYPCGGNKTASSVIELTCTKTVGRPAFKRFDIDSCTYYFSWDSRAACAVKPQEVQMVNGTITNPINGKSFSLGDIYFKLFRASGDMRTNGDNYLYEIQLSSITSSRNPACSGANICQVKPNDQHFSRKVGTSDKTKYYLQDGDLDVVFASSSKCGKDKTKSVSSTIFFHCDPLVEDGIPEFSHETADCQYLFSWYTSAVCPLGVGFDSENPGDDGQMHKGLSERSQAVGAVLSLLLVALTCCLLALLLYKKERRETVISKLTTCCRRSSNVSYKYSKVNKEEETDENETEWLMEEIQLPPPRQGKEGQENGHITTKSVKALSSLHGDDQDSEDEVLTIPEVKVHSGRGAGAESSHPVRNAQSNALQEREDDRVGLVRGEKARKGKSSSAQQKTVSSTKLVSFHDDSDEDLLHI
UniProt O43464: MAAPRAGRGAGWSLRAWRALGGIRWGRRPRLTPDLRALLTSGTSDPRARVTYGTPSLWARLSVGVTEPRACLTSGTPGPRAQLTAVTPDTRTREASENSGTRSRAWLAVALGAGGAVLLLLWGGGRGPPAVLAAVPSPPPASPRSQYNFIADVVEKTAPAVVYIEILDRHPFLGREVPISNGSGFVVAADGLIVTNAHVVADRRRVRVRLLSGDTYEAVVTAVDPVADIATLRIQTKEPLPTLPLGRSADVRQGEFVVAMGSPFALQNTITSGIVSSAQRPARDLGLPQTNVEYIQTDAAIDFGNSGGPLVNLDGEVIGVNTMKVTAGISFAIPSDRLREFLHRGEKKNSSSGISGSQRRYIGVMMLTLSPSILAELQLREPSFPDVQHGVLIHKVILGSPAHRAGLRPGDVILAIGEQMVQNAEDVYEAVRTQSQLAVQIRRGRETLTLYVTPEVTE
UniProt A1L0T0: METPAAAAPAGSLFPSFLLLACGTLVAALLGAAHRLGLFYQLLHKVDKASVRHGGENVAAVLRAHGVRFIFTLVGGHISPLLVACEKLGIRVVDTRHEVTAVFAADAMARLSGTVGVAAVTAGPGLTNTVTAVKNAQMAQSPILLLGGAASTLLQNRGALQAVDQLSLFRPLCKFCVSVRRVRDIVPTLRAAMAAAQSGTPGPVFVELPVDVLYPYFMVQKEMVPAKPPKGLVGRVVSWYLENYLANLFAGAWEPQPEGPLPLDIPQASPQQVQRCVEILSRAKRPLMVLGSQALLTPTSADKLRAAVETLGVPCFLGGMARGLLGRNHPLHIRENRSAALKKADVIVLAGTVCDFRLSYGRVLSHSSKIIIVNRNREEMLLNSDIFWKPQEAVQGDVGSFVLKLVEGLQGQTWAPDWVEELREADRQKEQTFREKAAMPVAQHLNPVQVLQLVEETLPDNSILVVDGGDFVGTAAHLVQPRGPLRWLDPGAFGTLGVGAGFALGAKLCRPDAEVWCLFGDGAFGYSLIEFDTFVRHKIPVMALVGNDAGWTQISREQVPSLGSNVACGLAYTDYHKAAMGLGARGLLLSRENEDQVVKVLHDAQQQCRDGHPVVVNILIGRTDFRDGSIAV
UniProt P51553: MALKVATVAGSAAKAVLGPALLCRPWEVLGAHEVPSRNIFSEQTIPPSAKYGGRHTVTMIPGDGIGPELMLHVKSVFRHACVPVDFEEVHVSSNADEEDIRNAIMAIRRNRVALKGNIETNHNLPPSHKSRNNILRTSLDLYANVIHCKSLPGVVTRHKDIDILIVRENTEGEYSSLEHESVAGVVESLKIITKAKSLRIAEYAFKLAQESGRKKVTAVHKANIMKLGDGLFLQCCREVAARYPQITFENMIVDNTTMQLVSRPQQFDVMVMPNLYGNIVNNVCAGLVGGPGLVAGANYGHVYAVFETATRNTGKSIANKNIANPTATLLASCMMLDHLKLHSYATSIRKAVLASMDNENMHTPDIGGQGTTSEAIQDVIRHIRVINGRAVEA
UniProt Q9NZL4: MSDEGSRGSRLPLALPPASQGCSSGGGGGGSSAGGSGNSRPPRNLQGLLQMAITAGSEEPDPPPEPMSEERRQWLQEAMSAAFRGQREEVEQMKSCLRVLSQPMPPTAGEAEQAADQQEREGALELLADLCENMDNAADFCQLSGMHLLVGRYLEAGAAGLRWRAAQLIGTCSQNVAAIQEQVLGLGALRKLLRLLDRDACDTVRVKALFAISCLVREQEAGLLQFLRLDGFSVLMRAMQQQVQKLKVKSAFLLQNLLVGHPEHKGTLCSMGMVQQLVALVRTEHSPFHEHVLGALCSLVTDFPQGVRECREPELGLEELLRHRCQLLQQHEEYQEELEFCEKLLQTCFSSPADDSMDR
UniProt O43719: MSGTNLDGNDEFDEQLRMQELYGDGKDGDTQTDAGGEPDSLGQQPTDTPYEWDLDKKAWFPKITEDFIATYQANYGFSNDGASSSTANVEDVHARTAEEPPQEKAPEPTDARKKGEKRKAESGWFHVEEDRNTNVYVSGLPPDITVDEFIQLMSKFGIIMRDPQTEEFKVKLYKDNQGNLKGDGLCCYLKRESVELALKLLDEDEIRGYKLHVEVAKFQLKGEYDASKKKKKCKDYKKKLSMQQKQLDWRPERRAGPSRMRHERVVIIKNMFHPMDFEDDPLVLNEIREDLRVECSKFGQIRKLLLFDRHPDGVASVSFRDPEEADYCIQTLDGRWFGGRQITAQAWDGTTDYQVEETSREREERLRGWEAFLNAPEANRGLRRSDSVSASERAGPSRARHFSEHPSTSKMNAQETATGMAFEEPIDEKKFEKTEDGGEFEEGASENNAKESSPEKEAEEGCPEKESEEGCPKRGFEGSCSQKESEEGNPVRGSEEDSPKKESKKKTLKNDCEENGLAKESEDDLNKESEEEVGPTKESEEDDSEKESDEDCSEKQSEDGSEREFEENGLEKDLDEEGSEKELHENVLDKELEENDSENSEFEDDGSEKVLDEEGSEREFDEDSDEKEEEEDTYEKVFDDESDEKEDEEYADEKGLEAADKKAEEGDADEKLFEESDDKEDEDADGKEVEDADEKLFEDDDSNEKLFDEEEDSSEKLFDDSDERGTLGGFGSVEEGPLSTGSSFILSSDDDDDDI
UniProt Q14116, whole entry, looked up: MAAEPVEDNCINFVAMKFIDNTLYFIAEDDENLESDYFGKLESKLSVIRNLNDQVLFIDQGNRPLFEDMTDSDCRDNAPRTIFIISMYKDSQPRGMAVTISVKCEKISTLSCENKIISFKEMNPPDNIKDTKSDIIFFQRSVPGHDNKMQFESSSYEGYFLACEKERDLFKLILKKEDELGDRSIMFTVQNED
UniProt O14732: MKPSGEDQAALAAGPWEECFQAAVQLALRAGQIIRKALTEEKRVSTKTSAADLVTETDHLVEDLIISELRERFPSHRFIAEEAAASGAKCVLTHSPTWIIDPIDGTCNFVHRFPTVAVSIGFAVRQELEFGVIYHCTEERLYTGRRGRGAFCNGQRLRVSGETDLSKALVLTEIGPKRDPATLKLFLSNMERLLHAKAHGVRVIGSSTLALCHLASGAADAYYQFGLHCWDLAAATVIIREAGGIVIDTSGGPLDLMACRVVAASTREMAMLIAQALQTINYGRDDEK
UniProt Q12906, whole entry, looked up: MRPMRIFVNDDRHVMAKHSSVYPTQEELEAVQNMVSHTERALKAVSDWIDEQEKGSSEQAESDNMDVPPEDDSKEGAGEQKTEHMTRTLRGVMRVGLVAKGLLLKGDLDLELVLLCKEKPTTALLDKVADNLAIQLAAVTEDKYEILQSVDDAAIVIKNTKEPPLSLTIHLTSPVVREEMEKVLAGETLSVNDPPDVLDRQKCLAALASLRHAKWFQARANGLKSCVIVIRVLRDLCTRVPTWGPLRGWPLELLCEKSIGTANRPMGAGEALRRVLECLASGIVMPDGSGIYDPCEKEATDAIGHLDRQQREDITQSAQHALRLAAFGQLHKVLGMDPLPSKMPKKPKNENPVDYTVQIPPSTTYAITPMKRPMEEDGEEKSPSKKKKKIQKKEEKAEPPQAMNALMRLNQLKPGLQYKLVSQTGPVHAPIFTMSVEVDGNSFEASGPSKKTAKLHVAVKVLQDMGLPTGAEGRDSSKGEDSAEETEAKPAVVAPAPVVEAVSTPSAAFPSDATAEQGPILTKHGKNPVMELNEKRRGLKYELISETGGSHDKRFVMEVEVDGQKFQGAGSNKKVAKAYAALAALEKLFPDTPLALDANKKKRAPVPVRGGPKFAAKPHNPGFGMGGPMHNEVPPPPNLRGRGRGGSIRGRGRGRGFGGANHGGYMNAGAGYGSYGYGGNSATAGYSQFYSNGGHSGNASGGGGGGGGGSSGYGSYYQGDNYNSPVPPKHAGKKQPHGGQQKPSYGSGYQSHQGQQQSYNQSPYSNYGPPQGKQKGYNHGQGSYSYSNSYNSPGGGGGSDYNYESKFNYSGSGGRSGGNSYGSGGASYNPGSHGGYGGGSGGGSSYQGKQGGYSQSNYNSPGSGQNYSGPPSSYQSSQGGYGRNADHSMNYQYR
UniProt Q9NRY2: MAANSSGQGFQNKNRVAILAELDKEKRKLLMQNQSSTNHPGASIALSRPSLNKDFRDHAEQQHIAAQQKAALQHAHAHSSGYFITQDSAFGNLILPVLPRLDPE

Legend:
Assay in all cases: log2 fold change, soluble protein after heating vs DMSO (PISA); higher = thermal stabilisation; K562 lysate, 10 uM; active = over 0.2 and 3.5 SD of the protein, either way, in both replicates (recomputed)
vemurafenib = compound: CCCS(=O)(=O)Nc1ccc(F)c(C(=O)c2c[nH]c3ncc(-c4ccc(Cl)cc4)cc23)c1F [vemurafenib]
Outline: (§1)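 Soluble protein was defined as the supernatant remaining after 21,000xg for 90 min, following pooling of heated aliquots and adjustment to 0.5% NP-40 at 4°C. Before that, crude K562 extract at 1 mg/mL protein in PBS pH 7.4 with 1 mM MgCl2 was treated with 10 μM compound for 30 min and heated for 3 min across 48°C-58°C. Quantification used TMTpro 16plex LC-MS/MS with channel sums equalised, and values are log-two fold changes in thermal stability relative to solvent controls from duplicates.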

[1] = compound: CCCS(=O)(=O)Nc1ccc(F)c(C(=O)c2c[nH]c3ncc(Cl)cc23)c1F
Outline: as §1

barasertib = compound: CCN(CCCOc1ccc2c(Nc3cc(CC(=O)Nc4cccc(F)c4)[nH]n3)ncnc2c1)CCOP(=O)(O)O [barasertib]
Outline: as §1

[2] = compound: CC[C@@H]1C(=O)N(C)c2cnc(Nc3ccc(C(=O)NC4CCN(C)CC4)cc3OC)nc2N1C1CCCC1
Outline: as §1

volasertib = compound: CC[C@@H]1C(=O)N(C)c2cnc(Nc3ccc(C(=O)N[C@H]4CC[C@H](N5CCN(CC6CC6)CC5)CC4)cc3OC)nc2N1C(C)C [volasertib]
Outline: as §1

[3] = compound: CCn1c(C(=O)N(C2CC2)C2CC2)cc2c3c(ncn3C)c(Nc3cc(C)n(C)n3)nc21
Outline: as §1

[4] = compound: CCn1cc(-c2ccnc3[nH]c(-c4cccc(CN(C)C)c4)cc23)c(-c2ccc(NC(=O)N(C)C)cc2)n1
Outline: as §1

[5] = compound: CN1CCC(CNc2ccc3ncc(-c4cccc(OC(F)(F)F)c4)n3n2)CC1
Outline: as §1

saracatinib = compound: CN1CCN(CCOc2cc(OC3CCOCC3)c3c(Nc4c(Cl)ccc5c4OCO5)ncnc3c2)CC1 [saracatinib]
Outline: as §1

sotrastaurin = compound: CN1CCN(c2nc(C3=C(c4c[nH]c5ccccc45)C(=O)NC3=O)c3ccccc3n2)CC1 [sotrastaurin]
Outline: as §1

Measured: log2 fold change

HSPE1 (UniProt P61604)
inactive: vemurafenib -0.009 | [1] -0.02 | barasertib 0.086 | [2] -0.01 | volasertib 0.064 | [3] 0.004 | [4] -0.038 | [5] -0.031 | saracatinib -0.004 | sotrastaurin -0.017

IGF2R (UniProt P11717)
inactive: vemurafenib -0.007 | [1] 0.008 | barasertib -0.005 | [2] 0.026 | volasertib 0.01 | [3] 0.007 | [4] -0.041 | [5] 0.049 | saracatinib -0.013 | sotrastaurin 0.055

IGBP1 (UniProt P78318)
inactive: vemurafenib -0.002 | [1] 0.039 | barasertib -0.007 | [2] 0.028 | volasertib 0.005 | [3] 0.015 | [4] -0.232 | [5] 0.001 | saracatinib 0.029 | sotrastaurin 0.021

INTS12 (UniProt Q96CB8)
inactive: vemurafenib -0.017 | [1] -0.03 | barasertib 0.02 | [2] 0.041 | volasertib 0.026 | [3] -0.007 | [4] 0.097 | [5] -0.096 | saracatinib 0.011 | sotrastaurin 0.059

IBTK (UniProt Q9P2D0)
inactive: vemurafenib 0.07 | [1] 0.089 | barasertib -0.029 | [2] 0.015 | volasertib 0.015 | [3] -0.021 | [4] 0.168 | [5] -0.081 | saracatinib 0.021 | sotrastaurin -0.028

HTATIP2 isoform 3 (UniProt Q9BUP3)
inactive: vemurafenib -0.023 | [1] -0.003 | barasertib 0.027 | [2] 0.008 | volasertib -0.036 | [3] 0.043 | [4] 0.064 | [5] -0.109 | saracatinib -0.002 | sotrastaurin 0.052

HTRA2 (UniProt O43464)
inactive: vemurafenib 0.024 | [1] 0.01 | barasertib -0.01 | [2] 0.067 | volasertib 0.002 | [3] -0.009 | [4] -0.05 | [5] 0.047 | saracatinib 0.025 | sotrastaurin 0.004

ILVBL (UniProt A1L0T0)
inactive: vemurafenib 0.181 | [1] 0.04 | barasertib -0.05 | [2] 0.043 | volasertib 0.035 | [3] -0.016 | [4] -0.111 | [5] 0.065 | saracatinib 0 | sotrastaurin -0.01

IDH3G (UniProt P51553)
inactive: vemurafenib -0.036 | [1] -0.014 | barasertib 0.014 | [2] 0.03 | volasertib -0.012 | [3] -0.043 | [4] -0.032 | [5] 0.015 | saracatinib 0.012 | sotrastaurin -0.026

HSPBP1 (UniProt Q9NZL4)
inactive: vemurafenib -0.01 | [1] -0.005 | barasertib 0 | [2] 0.06 | volasertib 0.002 | [3] -0.009 | [4] -0.004 | [5] 0.038 | saracatinib 0.006 | sotrastaurin 0.012

IKBIP isoform 4 (UniProt Q70UQ0)
inactive: vemurafenib -0.002 | [1] -0.005 | barasertib 0.026 | [2] 0.013 | volasertib 0.009 | [3] -0.016 | [4] -0.014 | [5] 0.003 | saracatinib -0.016 | sotrastaurin 0.055

HTATSF1 (UniProt O43719)
inactive: vemurafenib -0.017 | [1] -0.002 | barasertib 0.002 | [2] 0.047 | volasertib -0.012 | [3] -0.002 | [4] 0.007 | [5] 0.028 | saracatinib 0.007 | sotrastaurin 0.01

IL18 (UniProt Q14116)
inactive: vemurafenib -0.007 | [1] 0.004 | barasertib 0.021 | [2] 0.016 | volasertib 0.021 | [3] 0.012 | [4] -0.146 | [5] 0.018 | saracatinib 0.002 | sotrastaurin 0.016

IMPDH2 (UniProt H0Y4R1)
inactive: vemurafenib -0.047 | [1] 0.114 | barasertib 0.134 | [2] 0.195 | volasertib 0.001 | [3] -0.1 | [4] 0.059 | [5] 0.129 | saracatinib 0.043 | sotrastaurin 0.116

HYOU1 (UniProt J3QL06)
inactive: vemurafenib -0.214 | [1] -0.012 | [2] -0.121 | volasertib 0.029 | [3] -0.166 | saracatinib 0.099 | sotrastaurin -0.063

ICE2 (UniProt Q659A1)
inactive: vemurafenib -0.036 | [1] -0.083 | barasertib 0.047 | [2] 0.062 | volasertib 0.104 | [3] -0.035 | [4] -0.002 | [5] -0.017 | saracatinib 0.003 | sotrastaurin 0.005

ICAM4 isoform 3 (UniProt Q14773)
inactive: vemurafenib -0.03 | barasertib 0.043 | [2] -0.092 | [3] -0.343 | [4] -0.084 | [5] 0.022 | saracatinib 0.026

IFT46 isoform 2 (UniProt Q9NQC8)
inactive: vemurafenib 0.201 | [1] 0.292 | [2] -0.094 | volasertib -0.138 | [4] -0.077 | [5] -0.018 | sotrastaurin -0.138

IDH3A isoform 2 (UniProt P50213)
inactive: vemurafenib -0.013 | [1] 0.058 | barasertib 0.017 | [2] 0.024 | volasertib 0.032 | [4] -0.272 | [5] 0.13 | saracatinib -0.013

IBA57 (UniProt Q5T440)
inactive: vemurafenib 0.01 | [1] -0.019 | barasertib -0.038 | [2] -0.024 | volasertib -0.024 | [3] -0.004 | [4] -0.015 | [5] 0.048 | saracatinib 0.023 | sotrastaurin 0.017

IMPA2 (UniProt O14732)
inactive: vemurafenib 0.002 | [1] -0.002 | barasertib 0.131 | [2] -0.098 | volasertib -0.051 | [3] 0.09 | [4] 0.149 | [5] 0.051 | saracatinib 0.039 | sotrastaurin 0.009

ILF3 (UniProt Q12906)
inactive: vemurafenib -0.051 | [1] 0.013 | barasertib -0.066 | [2] -0.039 | volasertib -0.003 | [4] -0.417 | [5] -0.067 | saracatinib 0.076 | sotrastaurin -0.033

HSPB11 (UniProt Q9Y547)
inactive: vemurafenib 0.012 | [1] 0.005 | barasertib -0.015 | [2] 0.002 | volasertib 0.078 | [3] -0.014 | [4] -0.137 | [5] 0.152 | saracatinib 0.032 | sotrastaurin -0.028

INIP (UniProt Q9NRY2)
inactive: vemurafenib -0.053 | [1] -0.022 | volasertib -0.037 | [3] 0.179 | saracatinib -0.091

5 successive entries from above:
IBA57 (UniProt Q5T440)
inactive: vemurafenib 0.01 | [1] -0.019 | barasertib -0.038 | [2] -0.024 | volasertib -0.024 | [3] -0.004 | [4] -0.015 | [5] 0.048 | saracatinib 0.023 | sotrastaurin 0.017

IMPA2 (UniProt O14732)
inactive: vemurafenib 0.002 | [1] -0.002 | barasertib 0.131 | [2] -0.098 | volasertib -0.051 | [3] 0.09 | [4] 0.149 | [5] 0.051 | saracatinib 0.039 | sotrastaurin 0.009

ILF3 (UniProt Q12906)
inactive: vemurafenib -0.051 | [1] 0.013 | barasertib -0.066 | [2] -0.039 | volasertib -0.003 | [4] -0.417 | [5] -0.067 | saracatinib 0.076 | sotrastaurin -0.033

HSPB11 (UniProt Q9Y547)
inactive: vemurafenib 0.012 | [1] 0.005 | barasertib -0.015 | [2] 0.002 | volasertib 0.078 | [3] -0.014 | [4] -0.137 | [5] 0.152 | saracatinib 0.032 | sotrastaurin -0.028

INIP (UniProt Q9NRY2)
inactive: vemurafenib -0.053 | [1] -0.022 | volasertib -0.037 | [3] 0.179 | saracatinib -0.091

(listing goes on)

IGLL5 (UniProt B9A064)
inactive: vemurafenib 0.166 | [1] 0.044 | [2] -0.286 | volasertib -0.098 | [3] -0.017 | [4] 0.477 | [5] -0.29 | sotrastaurin -0.124

IGHA1 (UniProt P01876)
inactive: vemurafenib 0.788 | barasertib -0.134 | [2] -0.328 | [3] -0.182 | [4] 0.941 | [5] -0.879 | saracatinib -0.249 | sotrastaurin -0.266
